# The supplement of paper PMC8728848
# The other results are listed elsewhere or left out.
# Tests used:
# Experiment in all cases: glycan array binding signal (z-score within array); higher = stronger binding
# Conditions in all cases: glycan notation: IUPAC condensed, linker removed
# [1] = target: Neu5Ac(a2-3)Gal(b1-4)GlcNAc(b1-2)[Neu5Ac(a2-3)Gal(b1-4)GlcNAc(b1-4)]Man(a1-3)[GlcNAc(b1-4)][Neu5Ac(a2-3)Gal(b1-4)GlcNAc(b1-2)[Neu5Ac(a2-3)Gal(b1-4)GlcNAc(b1-6)]Man(a1-6)]Man(b1-4)GlcNAc(b1-4)GlcNAc
# Summary of the method: (§1)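 Glycan array binding is given as a within-array Z-score, which can be read as non-binding when negative. The arrays, 3228 of them, came from the Consortium for Functional Glycomics database and were retained only where the protein sequence was available. Z-scores were averaged across arrays of the same protein sequence at different concentrations or buffers and across linkers.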
# [2] = target: Neu5Ac(a2-3)Gal(b1-4)GlcNAc(b1-2)[Neu5Ac(a2-3)Gal(b1-4)GlcNAc(b1-4)]Man(a1-3)[GlcNAc(b1-4)][Neu5Ac(a2-3)Gal(b1-4)GlcNAc(b1-4)Man(a1-6)]Man(b1-4)GlcNAc(b1-4)GlcNAc
# Summary of the method: as §1
# [3] = target: Neu5Ac(a2-3)Gal(b1-4)GlcNAc(b1-2)[Neu5Ac(a2-3)Gal(b1-4)GlcNAc(b1-6)]Man(a1-6)[Neu5Ac(a2-3)Gal(b1-4)GlcNAc(b1-2)Man(a1-3)][GlcNAc(b1-4)]Man(b1-4)GlcNAc(b1-4)GlcNAc
# Summary of the method: as §1
# [4] = target: Neu5Ac(a2-3)Gal(b1-4)GlcNAc(b1-3)Gal
# Summary of the method: as §1
# [5] = target: Neu5Ac(a2-3)Gal(b1-4)GlcNAc(b1-3)Gal(b1-3)GlcNAc
# Summary of the method: as §1
# [6] = target: Neu5Ac(a2-3)Gal(b1-4)GlcNAc(b1-3)Gal(b1-4)GlcNAc
# Summary of the method: as §1
# [7] = target: Neu5Ac(a2-3)Gal(b1-4)GlcNAc(b1-3)Gal(b1-4)GlcNAc(b1-2)Man(a1-3)[Neu5Ac(a2-3)Gal(b1-4)GlcNAc(b1-3)Gal(b1-4)GlcNAc(b1-2)Man(a1-6)]Man(b1-4)GlcNAc(b1-4)GlcNAc
# Summary of the method: as §1
# [8] = target: Neu5Ac(a2-3)Gal(b1-4)GlcNAc(b1-3)Gal(b1-4)GlcNAc(b1-3)Gal(b1-4)GlcNAc
# Summary of the method: as §1
# [9] = target: Neu5Ac(a2-3)Gal(b1-4)GlcNAc(b1-3)Gal(b1-4)GlcNAc(b1-3)Gal(b1-4)GlcNAc(b1-2)Man(a1-3)[Neu5Ac(a2-3)Gal(b1-4)GlcNAc(b1-3)Gal(b1-4)GlcNAc(b1-3)Gal(b1-4)GlcNAc(b1-2)Man(a1-6)]GalNAc
# Summary of the method: as §1
# [10] = target: Neu5Ac(a2-3)Gal(b1-4)GlcNAc(b1-3)Gal(b1-4)GlcNAc(b1-3)GalNAc
# Summary of the method: as §1
# [11] = target: Neu5Ac(a2-3)Gal(b1-4)GlcNAc(b1-3)Gal(b1-4)GlcNAc(b1-3)[Neu5Ac(a2-3)Gal(b1-4)GlcNAc(b1-3)Gal(b1-4)GlcNAc(b1-6)]GalNAc
# Summary of the method: as §1
# [12] = target: Neu5Ac(a2-3)Gal(b1-4)GlcNAc(b1-3)Gal(b1-4)GlcNAc(b1-6)[Gal(b1-3)]GalNAc
# Summary of the method: as §1
# [13] = target: Neu5Ac(a2-3)Gal(b1-4)GlcNAc(b1-3)Gal(b1-4)[Fuc(a1-3)]GlcNAc
# Summary of the method: as §1
# [14] = target: Neu5Ac(a2-3)Gal(b1-4)GlcNAc(b1-3)GalNAc
# Summary of the method: as §1
# [15] = target: Neu5Ac(a2-3)Gal(b1-4)GlcNAc(b1-3)[Neu5Ac(a2-3)Gal(b1-4)GlcNAc(b1-6)]GalNAc
# Summary of the method: as §1
# [16] = target: Neu5Ac(a2-3)Gal(b1-4)GlcNAc(b1-6)GalNAc
# Summary of the method: as §1
# [17] = target: Neu5Ac(a2-3)Gal(b1-4)GlcNAc(b1-6)[Gal(b1-3)]GalNAc
# Summary of the method: as §1
# [18] = target: Neu5Ac(a2-3)Gal(b1-4)GlcNAc(b1-6)[Neu5Ac(a2-3)Gal(b1-3)]GalNAc
# Summary of the method: as §1
# [19] = target: Neu5Ac(a2-3)Gal(b1-4)GlcNAc6S
# Summary of the method: as §1
# [20] = target: Neu5Ac(a2-3)Gal(b1-4)[Fuc(a1-3)]GlcNAc
# Summary of the method: as §1
# [21] = target: Neu5Ac(a2-3)Gal(b1-4)[Fuc(a1-3)]GlcNAc(b1-2)Man
# Summary of the method: as §1
# [22] = target: Neu5Ac(a2-3)Gal(b1-4)[Fuc(a1-3)]GlcNAc(b1-3)Gal
# Summary of the method: as §1
# [23] = target: Neu5Ac(a2-3)Gal(b1-4)[Fuc(a1-3)]GlcNAc(b1-3)Gal(b1-4)GlcNAc
# Summary of the method: as §1
# [24] = target: Neu5Ac(a2-3)Gal(b1-4)[Fuc(a1-3)]GlcNAc(b1-3)Gal(b1-4)[Fuc(a1-3)]GlcNAc(b1-3)Gal(b1-4)[Fuc(a1-3)]GlcNAc
# Summary of the method: as §1
# [25] = target: Neu5Ac(a2-3)Gal(b1-4)[Fuc(a1-3)]GlcNAc(b1-3)GalNAc
# Summary of the method: as §1
# [26] = target: Neu5Ac(a2-3)Gal(b1-4)[Fuc(a1-3)]GlcNAc(b1-6)[Gal(b1-3)]GalNAc
# Summary of the method: as §1
# [27] = target: Neu5Ac(a2-3)Gal(b1-4)[Fuc(a1-3)]GlcNAc(b1-6)[Neu5Ac(a2-3)Gal(b1-3)]GalNAc
# Summary of the method: as §1
# [28] = target: Neu5Ac(a2-3)Gal(b1-4)[Fuc(a1-3)]GlcNAc6S
# Summary of the method: as §1
# [29] = target: Neu5Ac(a2-3)Gal6S(b1-4)GlcNAc
# Summary of the method: as §1
# [30] = target: Neu5Ac(a2-3)Gal6S(b1-4)[Fuc(a1-3)]GlcNAc
# Summary of the method: as §1
# Neu5Ac(a2-3)GalNAc = target: Neu5Ac(a2-3)GalNAc
# Summary of the method: as §1
# [31] = target: Neu5Ac(a2-3)GalNAc(b1-4)GlcNAc
# Summary of the method: as §1
# [32] = target: Neu5Ac(a2-3)[GalNAc(b1-4)]Gal(b1-4)Glc
# Summary of the method: as §1
# [33] = target: Neu5Ac(a2-3)[GalNAc(b1-4)]Gal(b1-4)GlcNAc
# Summary of the method: as §1
# [34] = target: Neu5Ac(a2-3)[GalNAc(b1-4)]Gal(b1-4)GlcNAc(b1-3)GalNAc
# Summary of the method: as §1
# [35] = target: Neu5Ac(a2-3)[Neu5Ac(a2-6)]GalNAc
# Summary of the method: as §1
# Neu5Ac(a2-6)Gal = target: Neu5Ac(a2-6)Gal
# Summary of the method: as §1
binder,measurement,setting,value
Mnn9-2N3 (Aspergillus fumigatus) (protein) MAVARRMRRTNPITLLLAAILAIGFFIFVLSPSTTSASPVKAGSASSSSTSQQRREDNAAENPLSPPTKPFFKSQPVRHDGQQAPPPVVQYNLNQLSSTSTSAANGERILILTPMARFVPEYWDNVVKLTYPHELISIGFIIPKNKEGNAALAALEAAIAKTQSGPIDKRFASISILRQDFEPPLQSQDEKERHKISNQKARRESMSRARNSLLFTTLGPATAWVLWLDADIVETPPTLIQDLTAHDHPVLVPNCYQRYYNSEKKKMDVRPYDYNSWIDSSTAQSMAAEMGPDEILLEGYAEMPTYRTLMAHLADTANPNPKKVIELDGVGGTALMVKAEVHRDGAMFPAFPFYHLVETEGFAKMAKRLGYSVYGLPDYFVSRNFFFFFFFFFFG,glycan array binding signal (z-score),[1],-0.547
same,glycan array binding signal (z-score),[2],-0.682
same,glycan array binding signal (z-score),[3],-0.217
same,glycan array binding signal (z-score),[4],0.292
same,glycan array binding signal (z-score),[5],0.123
same,glycan array binding signal (z-score),[6],-0.135
same,glycan array binding signal (z-score),[7],-0.069
same,glycan array binding signal (z-score),[8],0.234
same,glycan array binding signal (z-score),[9],-1.05
same,glycan array binding signal (z-score),[10],-2.49
same,glycan array binding signal (z-score),[11],-0.764
same,glycan array binding signal (z-score),[12],-0.542
same,glycan array binding signal (z-score),[13],0.58
same,glycan array binding signal (z-score),[14],-0.007
same,glycan array binding signal (z-score),[15],-2.1
same,glycan array binding signal (z-score),[16],-0.242
same,glycan array binding signal (z-score),[17],-0.181
same,glycan array binding signal (z-score),[18],-0.079
same,glycan array binding signal (z-score),[19],-0.221
same,glycan array binding signal (z-score),[20],0.761
same,glycan array binding signal (z-score),[21],0.079
same,glycan array binding signal (z-score),[22],0.562
same,glycan array binding signal (z-score),[23],-0.809
same,glycan array binding signal (z-score),[24],1.99
same,glycan array binding signal (z-score),[25],0.169
same,glycan array binding signal (z-score),[26],0.502
same,glycan array binding signal (z-score),[27],-0.206
same,glycan array binding signal (z-score),[28],-0.011
same,glycan array binding signal (z-score),[29],0.051
same,glycan array binding signal (z-score),[30],2.08
same,glycan array binding signal (z-score),Neu5Ac(a2-3)GalNAc,0.03
same,glycan array binding signal (z-score),[31],-0.309
same,glycan array binding signal (z-score),[32],0.418
same,glycan array binding signal (z-score),[33],0.963
same,glycan array binding signal (z-score),[34],-2.19
same,glycan array binding signal (z-score),[35],-0.105
same,glycan array binding signal (z-score),Neu5Ac(a2-6)Gal,0.373

# Random excerpt: 2 records from the list.
binder,measurement,setting,value
Mnn9-2N3 (Aspergillus fumigatus) (protein) MAVARRMRRTNPITLLLAAILAIGFFIFVLSPSTTSASPVKAGSASSSSTSQQRREDNAAENPLSPPTKPFFKSQPVRHDGQQAPPPVVQYNLNQLSSTSTSAANGERILILTPMARFVPEYWDNVVKLTYPHELISIGFIIPKNKEGNAALAALEAAIAKTQSGPIDKRFASISILRQDFEPPLQSQDEKERHKISNQKARRESMSRARNSLLFTTLGPATAWVLWLDADIVETPPTLIQDLTAHDHPVLVPNCYQRYYNSEKKKMDVRPYDYNSWIDSSTAQSMAAEMGPDEILLEGYAEMPTYRTLMAHLADTANPNPKKVIELDGVGGTALMVKAEVHRDGAMFPAFPFYHLVETEGFAKMAKRLGYSVYGLPDYFVSRNFFFFFFFFFFG,glycan array binding signal (z-score),[15],-2.1
same,glycan array binding signal (z-score),[9],-1.05
